Experimental data: the supplement of paper PMC8047044
Structures can show the parent of a compound that is named as a salt. Some of the results follow. Many values rest on one well or one pass, so single values are uncertain.

Tested on: Neuro-2a
Test: neurite formation score, plate-normalized to DMSO control mean 5.04 (score (0-8 scale)); higher = more or longer neurites
Conditions: 10 µM

Row | Compound | neurite formation score
1 | Nc1cccc(-c2cc3c(Oc4cccc(O)c4)ncnc3[nH]2)c1 | 0.855
2 | COc1ccc(C(=O)Nc2sc3c(c2C(N)=O)CCCC3)cc1OC | 4.88
3 | C#Cc1cccc(Nc2ncnc3cc4c(cc23)OCCOCCOCCO4)c1 [Icotinib] | 5.42
4 | CCOc1ccn(-c2ccc(F)cc2)c(=O)c1C(=O)Nc1ccc(Oc2ccnc(N)c2Cl)c(F)c1 | 1.85
5 | COc1cc2nccc(Oc3ccc(NC(=O)Nc4ccc(F)cc4F)c(F)c3)c2cc1OC | 4.21
6 | Brc1c(Br)c(Br)c2n[nH]nc2c1Br | 0.0903
7 | CS(=O)(=O)CCNCc1ccc(-c2ccc3ncnc(Nc4ccc(OCc5cccc(F)c5)c(Cl)c4)c3c2)o1 [Lapatinib] | 3.52
8 | Cc1cc(Nc2cc(N3CCN(C)CC3)nc(Sc3ccc(NC(=O)C4CC4)cc3)n2)n[nH]1 [VX-680 (MK-0457,Tozasertib)] | 2.41
9 | NC1(c2ccc(-c3nc4ccn5c(=O)[nH]nc5c4cc3-c3ccccc3)cc2)CCC1 [MK-2206 dihydrochloride] | 3.21
10 | Cc1cc(Nc2ncc(Cl)c(Nc3ccccc3S(=O)(=O)C(C)C)n2)c(OC(C)C)cc1C1CCNCC1 | -0.147
11 | CNC(=O)c1nn(C)c2c1C(C)(C)Cc1cnc(Nc3ccc(N4CCN(C)CC4)cc3)nc1-2 | 1.43
12 | COc1cc2c(c(OC)c1OC)-c1c(cc3c(c1OC)OCO3)CC(C)C(C)C2 (centres undefined) [Schizandrin B] | 5.19
13 | O=C(O)c1ccc(-c2c[nH]c3ncc(-c4ccccc4)cc23)cc1C1CCCC1 | 1.43
14 | Cc1ccc(S(=O)(=O)/C=C/C#N)cc1 | -0.576
15 | Nc1nc(Nc2ccc(S(N)(=O)=O)cc2)nn1C(=O)c1c(F)cccc1F | 3.08
16 | C[C@H](NC(=O)/C(C#N)=C/c1cccc(Br)n1)c1ccccc1 | 0.41
17 | CC(C)c1cnn2c(NCc3ccccc3)cc(NCCCCCCN)nc12 | 0.186
18 | COc1cc2/c(=N/c3ccc(Br)cc3F)nc[nH]c2cc1OCC1CCN(C)CC1 [Vandetanib (ZD6474)] | 3.76
19 | CCn1c2ccccc2c2cc(Nc3ccnc(NCCCN4CCOCC4)n3)ccc21 | 0.189
20 | CNC(=O)c1cc(Oc2ccc(NC(=O)Nc3ccc(Cl)c(C(F)(F)F)c3)cc2)ccn1 [Sorafenib] | 2.54

Excerpt, entries 5–6
Row | Compound | neurite formation score
5 | COc1cc2nccc(Oc3ccc(NC(=O)Nc4ccc(F)cc4F)c(F)c3)c2cc1OC | 4.21
6 | Brc1c(Br)c(Br)c2n[nH]nc2c1Br | 0.0903

Next part.

Row | Compound | neurite formation score
21 | CCCCCCCCCCCCCCCCCC(=O)OC[C@H](CO)OC(=O)CCCCCCCCCCCCCCCCC [1,2-Distearoyl-sn-glycerol] | 5.86
22 | Cc1ccc(C(=O)Nc2ccc(CN3CCN(C)CC3)c(C(F)(F)F)c2)cc1C#Cc1cnc2cccnn12 | -0.147
23 | Cn1cnc(=N)c2[nH]cnc21 [3-Methyladenine] | 4.19
24 | Cn1cnc(-c2cc3nccc(Oc4ccc(NC(=S)NC(=O)Cc5ccccc5)cc4F)c3s2)c1 | 1.08
25 | CC(=O)Nc1nc(C)c(-c2ccc(Cl)c(S(=O)(=O)NCCO)c2)s1 | 4.52
26 | C[C@@H](Oc1ccc2[nH]nc(/C=C/c3cnn(CCO)c3)c2c1)c1c(Cl)cncc1Cl | 1.41
27 | Cc1ccc(C(=O)Nc2ccc(CN3CCN(C)CC3)c(C(F)(F)F)c2)cc1C#Cc1cnc2[nH]ncc2c1 | 1.76
28 | COc1cc(N2CCC(N(C)C)CC2)ccc1Nc1ncc(Cl)c(Nc2ccccc2P(C)(C)=O)n1 | 4.54
29 | C[C@@H]1CN(CC(=O)Nc2ccc3c(c2)Cc2cccc(-c4cc(=O)cc(N5CCOCC5)o4)c2S3)C[C@H](C)O1 | 1.52
30 | COc1cc2c(Nc3ccc(NC(=O)c4ccccc4)cc3)ncnc2cc1OCCCN1CCOCC1 | 3.08
31 | CCCNC(=O)Nc1ccc(Oc2ncnc3cc(OC)c(OC)cc23)cc1Cl | 4.85
32 | O=C1NC(=O)C(=Cc2ccc(-c3ccc(F)cc3)o2)S1 (stereo in doubt) | 3.52
33 | CNC(=O)c1ccccc1Nc1nc(Nc2ccc(N3CCOCC3)cc2OC)ncc1Cl | 2.43
34 | Nc1ncnc2n[nH]c(Nc3ccc(F)cc3)c12 | 5.19
35 | CN1CCN(c2ccc(OC(F)(F)F)c(Nc3ncc4c(n3)-c3c(c(C(N)=O)nn3CCO)CC4)c2)CC1 | 4.86
36 | CCC(=O)Nc1cccc(Oc2nc(Nc3ccc(N4CCN(C)CC4)cc3OC)ncc2Cl)c1 | 3.43
37 | CO[C@H]1C[C@@H]2CC[C@@H](C)[C@@](O)(O2)C(=O)C(=O)N2CCCC[C@H]2C(=O)O[C@H]([C@H](C)C[C@@H]2CC[C@@H](O)[C@H](OC)C2)CC(=O)[C@H](C)/C=C(\C)[C@@H](O)[C@@H](OC)C(=O)[C@H](C)C[C@H](C)/C=C/C=C/C=C/1C [Rapamycin (Sirolimus)] | 4.19
38 | CCN1CCN(Cc2ccc(-c3cc4c(N[C@H](C)c5ccccc5)ncnc4[nH]3)cc2)CC1 | 1.52
39 | Cc1cc(Nc2cc(CN3CCOCC3)c3nc(C)c(Cc4ccc(Cl)cc4F)n3n2)n[nH]1 | 0.077
